No signal at the amounts used counts as a negative. At least one verdict rests on a figure or table, not on a statement of the authors. For some of these results: Tags and fusion partners may be left off the protein sequences shown.
Target: BSA (UniProt P02769)
Test: fluorescence anisotropy
Details: 20 mM Tris pH 8.0, 1 M NaCl, 5 nM 5'-fluorescein RNA; temperature not stated; commercial protein; label: 5' fluorescein

By UniProt entry, the sequences of proteins in these tests, tags left out. Residues count along the entry.
UniProt P02769, 25-607: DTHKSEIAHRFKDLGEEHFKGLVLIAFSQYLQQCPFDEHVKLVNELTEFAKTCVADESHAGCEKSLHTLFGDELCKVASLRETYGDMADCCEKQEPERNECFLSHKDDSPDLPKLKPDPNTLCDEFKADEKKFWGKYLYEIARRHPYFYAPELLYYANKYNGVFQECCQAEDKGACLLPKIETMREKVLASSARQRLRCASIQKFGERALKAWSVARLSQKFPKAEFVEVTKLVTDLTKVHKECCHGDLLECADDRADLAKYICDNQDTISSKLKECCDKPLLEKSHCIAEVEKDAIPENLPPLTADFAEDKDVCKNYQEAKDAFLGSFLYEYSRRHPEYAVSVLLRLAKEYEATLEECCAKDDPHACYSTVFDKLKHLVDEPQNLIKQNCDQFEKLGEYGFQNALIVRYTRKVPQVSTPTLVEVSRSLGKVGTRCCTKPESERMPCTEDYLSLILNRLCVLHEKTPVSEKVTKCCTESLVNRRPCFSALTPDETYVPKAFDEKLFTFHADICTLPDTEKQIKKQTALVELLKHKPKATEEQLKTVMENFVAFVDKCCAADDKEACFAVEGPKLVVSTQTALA

Binding result, no binding:
UUUUUUU [U7]

Target: T1, MTH1203 KHa-b (Methanothermobacter thermautotrophicus delta H) (UniProt O27271)
T1 sequence (looked up): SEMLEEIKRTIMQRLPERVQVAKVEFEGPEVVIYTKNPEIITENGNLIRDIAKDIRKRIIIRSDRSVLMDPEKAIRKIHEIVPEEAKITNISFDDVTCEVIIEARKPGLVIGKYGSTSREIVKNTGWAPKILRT
Test: fluorescence anisotropy
Details: 20 mM Tris pH 8.0, 1 M NaCl, 5 nM 5'-fluorescein RNA; temperature not stated; recombinant protein; residues 3-136; protein details: N-terminal His6; label: 5' fluorescein

Binding result, no binding:
GGGGGGG [G7]
AAAAAAA [A7]
CCCCCCC [C7]
UUUUUUU [U7]

Target: T2, MTH1203 KHb (Methanothermobacter thermautotrophicus delta H) (UniProt O27271)
T2 sequence (looked up): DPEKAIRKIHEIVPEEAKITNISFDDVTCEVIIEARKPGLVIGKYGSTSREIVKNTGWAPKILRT
Test: fluorescence anisotropy
Details: 20 mM Tris pH 8.0, 1 M NaCl, 5 nM 5'-fluorescein RNA; temperature not stated; recombinant protein; residues 72-136; protein details: N-terminal His6; label: 5' fluorescein

Binding result, no binding:
GGGGGGG [G7]
AAAAAAA [A7]
CCCCCCC [C7]
UUUUUUU [U7]

Target: T3, MTH1203 KHa (Methanothermobacter thermautotrophicus delta H) (UniProt O27271)
T3 sequence (looked up): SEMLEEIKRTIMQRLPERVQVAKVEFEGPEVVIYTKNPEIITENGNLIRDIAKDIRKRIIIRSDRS
Test: fluorescence anisotropy
Details: 20 mM Tris pH 8.0, 1 M NaCl, 5 nM 5'-fluorescein RNA; temperature not stated; recombinant protein; residues 3-68; protein details: N-terminal His6; label: 5' fluorescein

Binding result, no binding:
GGGGGGG [G7]
AAAAAAA [A7]
CCCCCCC [C7]
UUUUUUU [U7]
